Test results: PubChem BioAssay AID493014 (National Center for Advancing Translational Sciences (NCATS), 2011)
Some of the results follow. Shown are side measurements of this screen, not its main read-out; they come without a call. Compounds called inactive in the main read-out are mostly missing here. Words in brackets tell the shape of the fitted curve; partial curves, single points and poor fits give uncertain potencies.

Assay: qHTS Assay to Find Inhibitors of Chronic Active B-Cell Receptor Signaling
Conditions: ABC-DLBCL IkBa-CBG/CBR reporter, luminescence ratio (green luciferase fused to IkBa over red control in TMD8 lymphoma cells), 4 h
Outline: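 Concentration-response series (up to 46 uM) were applied to TMD8 dual-reporter cells for 4 h at 37C with doxycycline. Green/red ratio, after filter-overlap correction, defined %Activity; red signal alone was normalised to basal cells and zero luminescence.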

[1] = measured here: CBR red luminescence, cell number
[2] = measured here: IkBa-CBG green luminescence

Row | SMILES | AC50 [1] | AC50 [2]
1 | CC(C)c1ccc(-c2noc(C3CCCN(S(C)(=O)=O)C3)n2)cc1 (stereo not drawn) | 10.3 µM [rising, partial curve, poor fit] | –
2 | C/C=C/COC(=O)c1[nH]c2c(c1C)C(=O)CC(c1ccco1)C2 (stereo not drawn) | 3.66 µM [rising, full curve] | –
3 | CCCc1cc(=O)n2[nH]c(SCc3ccccc3)nc2n1 | 5.17 µM [falling, partial curve] | –
4 | Cc1ccc(-n2cnc3cc(C(=O)NC4CCCCCC4)ccc32)c(C)c1 | 35.5 µM [rising, single point] | –
5 | CC(C)c1c(C(=O)N/N=C/c2cccc(OCc3ccccc3)c2)nnn1-c1nonc1N | 22.4 µM [rising, single point] | –
6 | O=C(NNC(=S)Nc1cccc(Cl)c1)c1ccccc1 | 4.47 µM [falling, full curve, poor fit] | –
7 | CCCCCc1ccc(-c2ccc(=O)[nH]n2)cc1 | 2.51 µM [rising, partial curve, poor fit] | –
8 | CCOC(=O)c1c(NC(=S)Nc2ccc(F)cc2)sc2c1CCC2 | 29.1 µM [falling, single point] | –
9 | N#CCCn1nc(-c2ccc([N+](=O)[O-])cc2)cc1Nc1ccccc1NC(=O)C(F)(F)F | 23.1 µM [falling, single point] | 29.1 µM [rising, single point]
10 | CCOC(=S)NC(=O)c1sc2ccccc2c1Cl | 11.2 µM [falling, single point] | –
11 | O=C(CSc1nc(-c2ccc(F)cc2)cs1)N1CCN(C(=O)c2ccco2)CC1 | 35.5 µM [falling, single point] | –
12 | CCCCn1c(SCC(=O)Nc2cccc(OC)c2)nc2ccc(N3CCOCC3)cc2c1=O | 0.82 µM [falling, full curve, poor fit] | –
13 | CCOC(=O)c1c(/N=C/C2=C(O)CC(C)(C)CC2=O)sc2c1CCCC2 | 17.8 µM [rising, partial curve, poor fit] | –
14 | CCOC(=O)c1c(C)[nH]c(C(=O)COC(=O)C23CC4CC(CC(Cl)(C4)C2)C3)c1C | 0.0326 µM [falling, full curve, poor fit] | –
15 | O=C(COc1cccc(-n2cnnn2)c1)Nc1ccc([N+](=O)[O-])cc1 | 0.708 µM [rising, full curve, poor fit] | –
16 | O=C(Nc1ccccc1)C1=C[C@@H](C2CC2)C[C@@H](OCCCCO)O1 | 5.01 µM [rising, full curve, poor fit] | –
17 | N#Cc1nc(COc2ccccc2)oc1N1CCCCC1 | 7.08 µM [rising, partial curve, poor fit] | –
18 | Cc1ccc(S(=O)(=O)N2CCC(c3nc4c(nnn4Cc4ccccc4)c(=O)[nH]3)CC2)cc1 | 35.5 µM [falling, single point] | –
19 | CC(=O)c1ccc2c(c1)C1C=CCC1C(c1ccc(S(=O)(=O)N3CCOCC3)cc1)N2 (stereo not drawn) | 0.00411 µM [falling, full curve, poor fit] | –
20 | Cc1c(-n2cccc2C=O)cccc1[N+](=O)[O-] | 3.16 µM [rising, partial curve, poor fit] | –

Given as a markdown table: part of the list above

| Row | SMILES | AC50 [1] | AC50 [2] |
| --- | --- | --- | --- |
| 13 | CCOC(=O)c1c(/N=C/C2=C(O)CC(C)(C)CC2=O)sc2c1CCCC2 | 17.8 µM [rising, partial curve, poor fit] | – |
| 17 | N#Cc1nc(COc2ccccc2)oc1N1CCCCC1 | 7.08 µM [rising, partial curve, poor fit] | – |

Additional results follow.

Row | SMILES | AC50 [1] | AC50 [2]
21 | O=C(Cc1ccc(Cl)cc1)NCCS(=O)(=O)N1CCN(c2ccccc2F)CC1 | – | 32.6 µM [falling, partial curve, poor fit]
22 | CCN(CC)Cc1c(O)ccc2c(=O)c(-c3ccc4c(c3)OCCO4)coc12 | 6.51 µM [rising, partial curve, poor fit] | –
23 | O=C(Nc1cccc2nsnc12)c1ccc2c(c1)OCCO2 | 12.6 µM [falling, partial curve, poor fit] | –
24 | CC1(C)Cc2c(sc3nc(SCC(=O)O)[nH]c(=O)c23)CO1 | 35.5 µM [rising, partial curve, poor fit] | –
25 | S=c1sc2c(Cl)ncnc2n1-c1ccccc1 | 35.5 µM [rising, single point] | 35.5 µM [falling, single point]
26 | CC(C)c1nnc(NC(=O)c2cccs2)s1 | 18.4 µM [falling, partial curve, poor fit] | –
27 | Cc1cc(NC(=O)CCC(=O)N(c2ccccc2)C(C(=O)NC2CCCC2)c2ccncc2)no1 (stereo not drawn) | 14.1 µM [rising, partial curve, poor fit] | –
28 | COc1cc(/C=N/N(CCO)C2=NS(=O)(=O)c3ccccc32)cc(OC)c1OC | 7.08 µM [rising, full curve, poor fit] | –
29 | Cc1[nH]n(-c2ccccc2)c(=O)c1Sc1ccc(Cl)cc1 | 20 µM [falling, single point] | –
30 | CC1CC(=O)Nc2ccccc2N1S(=O)(=O)c1cccc(Cl)c1 (stereo not drawn) | 23.1 µM [rising, single point] | –
31 | C=CCNC(=O)c1csc(-c2ccccc2)n1 | 11.2 µM [rising, partial curve, poor fit] | –
32 | COc1ccccc1N(C(=O)c1ccco1)C(C(=O)NC1CCCC1)c1ccncc1 (stereo not drawn) | 20 µM [falling, single point] | –
33 | Cc1ccc(F)c([C@H]2C3C=CCC(c4ccccc4)C3C(=O)N2Cc2ccccc2)c1 (stereo partly drawn) | 5.62 µM [falling, single point] | –
34 | CSCCC(NC(=O)c1ccccc1Cl)C(=O)N1CCN(C(c2ccccc2)c2ccccc2)CC1 (stereo not drawn) | 35.5 µM [falling, single point] | –
35 | CCN(CC)c1ccc(/C=C/c2ccc3ccc(OC)cc3[n+]2CC)cc1 | 35.5 µM [falling, single point] | –
36 | O=C(C[C@H]1C/C=C\C[C@H](NC(=O)OCC2c3ccccc3-c3ccccc32)C(=O)O[C@H](c2ccccc2)CNC1=O)N[C@H](CO)Cc1ccccc1 | 29.1 µM [falling, single point] | –
37 | O=C1OCCC1Sc1nnnn1-c1ccc(Cl)cc1 (stereo not drawn) | 7.08 µM [falling, partial curve] | –
38 | COc1cc(/C=N/Nc2ccc(Cl)c(C(=O)O)c2)ccc1OC(=O)c1ccco1 | 11.2 µM [falling, partial curve] | –
39 | N#C/C(=C\c1ccc(OCc2cccc(C(=O)O)c2)cc1)C(=O)NCc1ccco1 | 8.91 µM [falling, partial curve] | –
40 | CN(C)CCCNC(=O)C[C@H]1C[C@H](C(=O)N2CCOCC2)[C@@]2(C)c3[nH]c4cc(-c5ccco5)ccc4c3CCN2C1=O | 29.1 µM [rising, single point] | –

Row | SMILES | AC50 [1] | AC50 [2]
41 | Cc1ccc(S(=O)(=O)CCC(=O)Nc2nc(-c3ccncc3)cs2)cc1 | 12.6 µM [falling, single point] | –
42 | Cc1sc2nc(CN3CCOCC3)nc(NS(=O)(=O)c3cc(Cl)ccc3Cl)c2c1C | 25.9 µM [rising, single point] | –
43 | CNc1cc(N2CCCCCC2)ccc1[N+](=O)[O-] | 22.4 µM [rising, partial curve, poor fit] | –
44 | Cc1ccc(CN2CCN(/N=C/c3ccc(Cl)c([N+](=O)[O-])c3)CC2)cc1 | 20 µM [rising, partial curve, poor fit] | –
45 | COc1ccc(NC(=O)C(Cc2ccccc2)n2cccc2)cc1 (stereo not drawn) | 3.55 µM [rising, single point] | –
46 | O=C(O)CCc1n[nH]c(=S)[nH]c1=O | 0.0164 µM [rising, full curve, poor fit] | –
47 | Cc1cc(SCC(=O)N/N=C/c2ccc(O)c(O)c2)nc2ccccc12 | 17.8 µM [falling, single point] | –
48 | Cc1nn(-c2ccccc2)c(Cl)c1C(=O)NCCCCNC(=O)c1c(C)nn(-c2ccccc2)c1Cl | 29.1 µM [falling, single point] | –
49 | CC(C)NC(=O)[C@]1(C)CCC[C@@]2(C)C3CC[C@@]4(C)C[C@]3(CCC21)CC4=O (stereo partly drawn) | 25.9 µM [falling, single point] | –
50 | CC(C)NC(=O)/C(C#N)=C/c1ccc2c(c1)OCCO2 | 29.1 µM [falling, single point] | –
51 | COc1ccc(OCC(=O)N2CCN(C(=O)c3cccc4ccccc34)CC2)cc1 | 16.4 µM [rising, partial curve, poor fit] | –
52 | COc1ccc(/C=N/NC(=O)c2[nH]c3ccc(Cl)cc3c2-c2ccccc2)c(C(=O)O)c1OC | 3.98 µM [rising, full curve] | 3.55 µM [falling, full curve]
53 | O=C(Nc1ccccn1)C1CCN(S(=O)(=O)c2ccc3ccccc3c2)CC1 | 32.6 µM [falling, partial curve, poor fit] | –
54 | COc1ccc(OC)c(NC(=O)CSc2nnc(-c3ccco3)n2-c2ccc(C(=O)O)cc2)c1 | 35.5 µM [falling, single point] | –
55 | CCC(c1ccccc1)c1nc(-c2cccnc2)no1 (stereo not drawn) | 4.61 µM [rising, full curve, poor fit] | –
56 | COc1cccc(CC(=O)OCC(=O)NCC(=O)Nc2cccc(C)c2C)c1 | 1.46 µM [falling, full curve] | –
57 | CC(C)(C)C(=O)[C@@H]1[C@@H]2C(=O)N(C3CCCCC3)C(=O)[C@@H]2[C@H]2c3ccccc3C=CN12 | 8.2 µM [falling, partial curve, poor fit] | –
58 | Cc1sc2nc(SCC(=O)NCc3ccco3)n(-c3ccccc3)c(=O)c2c1C | 3.98 µM [rising, full curve, poor fit] | –
59 | CC(C)[C@H](NC(=O)NC1CCN(Cc2ccccc2)CC1)C(=O)O | 35.5 µM [rising, single point] | –
60 | C=CCNC(=S)NNC(=O)c1cc(-c2cccnc2)nc2ccccc12 | 15.8 µM [falling, partial curve, poor fit] | –
